Measured values taken from PubChem BioAssay AID2685 (National Center for Advancing Translational Sciences (NCATS), 2010).
The other results are listed elsewhere or left out. Shown are side measurements of this screen, not its main read-out; they come without a call. Most of these compounds were active or inconclusive in the main read-out, so they are no random draw. Words in brackets tell the shape of the fitted curve; partial curves, single points and poor fits give uncertain potencies.

Assay: qHTS Assay for Lipid Storage Modulators in Drosophila S3 Cells;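 for cell number change: cells counted by Cell Tracker Red CMTPX staining in the red channel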
Settings: BODIPY lipid droplet fluorescence, 18-24 h; for cell number change: measured here: cell count max response, cells fed with added oleic acid
How it was run: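 Drosophila S3 cells loaded with oleic acid (400 uM, as added) and compounds at several concentrations; lipid droplets imaged by 488-nm laser-scanning cytometry, 500–530 nm intensity and object ratio to cell channel. Percent activity normalized to 20 uM Triacsin C.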

[1] = measured here: cell number channel AC50, cells fed with added oleic acid
[2] = measured here: lipid fluorescence (Fed channel) AC50, cells fed with added oleic acid

| SMILES | cell number change | AC50 [1] | AC50 [2] |
| --- | --- | --- | --- |
| O=C(NC1CCCC1)c1ccc(CS(=O)(=O)c2ccc(Br)cc2)o1 | 66.7% | 4.61 µM [rising, partial curve] | 1.3 µM [rising, full curve] |
| CSc1nnc(C(C)(C)C)c(=O)n1/N=C/c1ccccc1 | 23.8% | – | 0.461 µM [rising, partial curve] |
| COc1ccc(N2CC(C(=O)OCC(=O)Nc3cccc(C)c3)CC2=O)cc1 (stereo not given) | -1.39% | – | 29.1 µM [falling, single point] |
| Cc1coc2c(C)c3oc(=O)c(CCC(=O)NCCCn4ccnc4)c(C)c3cc12 | – | 0.58 µM [rising, single point] | – |
| CCOC(=O)c1c(NC(=O)Cc2cccs2)sc(C)c1C | -13.5% | – | 0.164 µM [rising, full curve, poor fit] |
| CCNC(=O)CP(=O)(c1ccccc1)c1ccccc1 | -9.81% | – | 4.11 µM [falling, single point] |
| Cc1ccc(Nc2nc(C(=O)NCc3ccco3)cs2)cc1 | -32.9% | 5.8 µM [falling, full curve, poor fit] | 0.00461 µM [falling, full curve, poor fit] |
| Cc1[nH]c2ccccc2c1C(=O)COC(=O)C1CC(=O)N(Cc2ccco2)C1 (stereo not given) | – | 6.51 µM [rising, single point] | – |
| Cc1cccc(-c2noc(CCC(=O)NCc3ccccc3)n2)c1 | 16.8% | – | – |
| COCCNC(=S)N(Cc1cccnc1)Cc1ccc(OC)c(OC)c1 | 2.13% | – | 0.146 µM [rising, full curve, poor fit] |
| Cc1ccc(NC(=O)C2CCN(C(=O)NC3CCCCC3)CC2)cc1Cl | -16.8% | – | 29.1 µM [rising, single point] |
| Cn1cnnc1SCc1ccc(C#N)cc1Cl | -0.739% | – | 0.103 µM [falling, full curve, poor fit] |
| CCCCc1cc(=O)oc2cc(OC(C)C(=O)NCc3ccccn3)c(Cl)cc12 (stereo not given) | -21.7% | – | 0.731 µM [falling, full curve, poor fit] |
| COC(=O)CN1C(=O)C2(C(C#N)=C(N)Oc3ccccc32)C2=C1CC(C)(C)CC2=O (stereo not given) | -18% | 0.651 µM [falling, full curve] | 18.4 µM [falling, partial curve] |
| Cc1nc(C(C)NC(=O)c2cc(COc3ccc(C)c(C)c3)on2)c(C)s1 (stereo not given) | 7.63% | – | 20.6 µM [falling, single point] |
| CC(=O)N1CCN(S(=O)(=O)c2ccc3c(c2)CCC(=O)N3)CC1 | 12% | – | 0.206 µM [rising, full curve, poor fit] |
| CC(C)CN(CC(C)C)C(=O)CN1c2cccc3cccc(c23)S1(=O)=O | – | 6.51 µM [rising, single point] | – |
| CC(Oc1cccc(Cl)c1)C(=O)Nc1cc(S(=O)(=O)N2CCOCC2)ccc1N1CCCC1 (stereo not given) | 18.5% | – | – |
| Cc1c(C(=O)Nc2cccc([N+](=O)[O-])c2)csc1-c1ccccc1 | -6.61% | – | 18.4 µM [falling, single point] |
| O=C(NNC(=S)NC1CCCCC1)c1sc2ccccc2c1Cl | -23.2% | – | 29.1 µM [falling, single point] |

| SMILES | cell number change | AC50 [1] | AC50 [2] |
| --- | --- | --- | --- |
| O=C(COc1ccc(S(=O)(=O)NC2CCCCC2)cc1Cl)NCC1CCCO1 (stereo not given) | 88.9% | – | 6.51 µM [rising, single point] |
| CN(C)S(=O)(=O)N1CCN(C(=O)N2CCOCC2)CC1 | – | – | 3.26 µM [falling, full curve] |
| O=C(Nc1ccccc1)Nc1sccc1-c1nc2ccccc2s1 | -3.23% | – | 6.51 µM [falling, single point] |
| CC(=O)NCCn1c(SCC(=O)NCCC2=CCCCC2)nc2ccccc2c1=O | -51.8% | – | – |
| Cc1nc(NCc2ccc(S(N)(=O)=O)cc2)c2c(C)c(C)sc2n1 | 19.6% | – | – |
| CC(=O)c1ccc(C(=O)N2CCCC(C(=O)c3cc(F)ccc3F)C2)s1 (stereo not given) | 0.837% | – | 1.46 µM [rising, full curve, poor fit] |
| N#C/C(=N\Nc1ccccc1[N+](=O)[O-])C(=N)N1CCCCC1 | 63.6% | 3.66 µM [rising, full curve] | 9.2 µM [rising, partial curve] |
| COC(=O)c1cc(NC(=O)c2nn(C)c(=O)c3ccccc23)cc(C(=O)OC)c1 | 15.1% | – | 29.1 µM [falling, single point] |
| COC(=O)C1=C(C)NC(=S)N(C(C)=O)C1c1ccc(OC)c(OC)c1 (stereo not given) | 0.308% | – | 4.61 µM [rising, partial curve] |
| O=C(Nc1ccc2c(c1)C(=O)OC2)c1ccc(Cl)cc1 | 1.8% | – | 29.1 µM [rising, single point] |
| Nc1cc(C(=O)N2CCCC2)cc(C(=O)N2CCCC2)c1 | 25.5% | – | 29.1 µM [rising, single point] |
| CCOC(=O)N1CCN(CCC(=O)Nc2cccc(Br)c2)CC1 | – | – | 0.651 µM [falling, partial curve, poor fit] |
| O=C1CC(NS(=O)(=O)c2cc(F)ccc2F)CN1c1cccc(F)c1 (stereo not given) | 19.2% | – | 29.1 µM [rising, single point] |
| CN=C1S/C(=C\c2ccc(Cl)cc2)C(=O)N1C | 12.6% | – | 1.84 µM [rising, full curve] |
| O=[N+]([O-])c1cc(S(=O)(=O)Nc2ccc(Cl)cc2)ccc1N/N=C/c1ccncc1 | 37.6% | 23.1 µM [rising, single point] | – |
| CS(=O)(=O)N(CC(=O)N/N=C/c1ccc(OCC(=O)N2CCOCC2)cc1)c1ccccc1Cl | -6.11% | – | 0.092 µM [falling, full curve, poor fit] |
| CC(C)[C@H](NC(=O)c1ccccc1)C(=O)OCC(=O)N1CCCc2ccccc21 | -5.1% | 0.259 µM [falling, single point] | – |
| Cc1[nH]n(-c2ccccc2)c(=O)c1/C=N/NC(=O)C(C)C | 23.9% | – | – |
| O=C(CCc1nc(-c2ccccc2F)no1)NCCN1CCc2ccccc2C1 | -58.4% | 29.1 µM [falling, single point] | 3.66 µM [falling, full curve, poor fit] |
| Cc1nn2c3c(cnc2c1-c1ccccc1)C(=O)CCC3 | 19.8% | 4.11 µM [rising, full curve, poor fit] | 20.6 µM [rising, single point] |

Some of these compounds in order of formula weight, high to low:

| SMILES | cell number change | AC50 [1] | AC50 [2] |
| --- | --- | --- | --- |
| CCOC(=O)N1CCN(CCC(=O)Nc2cccc(Br)c2)CC1 | – | – | 0.651 µM [falling, partial curve, poor fit] |
| COC(=O)C1=C(C)NC(=S)N(C(C)=O)C1c1ccc(OC)c(OC)c1 (stereo not given) | 0.308% | – | 4.61 µM [rising, partial curve] |
| Cc1[nH]n(-c2ccccc2)c(=O)c1/C=N/NC(=O)C(C)C | 23.9% | – | – |

Additional structures follow:

| SMILES | cell number change | AC50 [1] | AC50 [2] |
| --- | --- | --- | --- |
| CCOc1ccc(-c2c(C(=O)N/N=C/c3cccnc3)nnn2-c2nonc2N)cc1 | 3.06% | – | 29.1 µM [rising, single point] |
| COC(=O)c1sccc1Oc1ccc(F)cc1[N+](=O)[O-] | 5.38% | – | 29.1 µM [rising, single point] |
| Cc1cc(C)nc(NC(=O)CSc2nc3ccccc3o2)n1 | 7.81% | 1.84 µM [rising, partial curve, poor fit] | – |
| Cc1c(C(=O)c2ccc(Cl)cc2[N+](=O)[O-])c2ccccn2c1CCC#N | -16% | – | 0.116 µM [rising, full curve, poor fit] |
| CN(C)C/C=C(\c1ccc(Br)cc1)c1cccnc1 | 25.8% | – | 29.1 µM [rising, single point] |
| Cc1ccc2c(c1)C(c1ccccc1)N(C(=O)c1cc3ccccc3oc1=O)CC(=O)N2 (stereo not given) | 4.39% | – | 5.17 µM [rising, single point] |
| Cc1nc2ccccc2n1C1CC(=O)N(Cc2ccccc2)C1=O (stereo not given) | -57.7% | 8.2 µM [falling, partial curve] | 5.8 µM [falling, partial curve] |
| CCn1ncc(/C=C/C(=O)Nc2c(C)nn(CC)c2C)c1C | -25.4% | – | 29.1 µM [falling, single point] |
| COc1cc(C(=O)OC(C)CN2CCCCC2)cc(OC)c1OC (stereo not given) | -11.9% | – | 0.651 µM [rising, full curve, poor fit] |
| C=C1CCC2[C@](C)(CO[C@@H]3O[C@H](CO)[C@@H](O)[C@H](O)[C@H]3O)CCC[C@@]2(C)[C@@H]1CCC1=CCOC1=O (stereo not given in full) | -39.9% | 0.13 µM [falling, full curve, poor fit] | 1.46 µM [falling, full curve] |
| CC(=O)/C(=N/Nc1ccccc1[N+](=O)[O-])N1CCCc2ccccc21 | -72.6% | 18.4 µM [falling, partial curve] | 14.6 µM [falling, partial curve] |
| COc1cc2c(cc1OC)C(NC(=O)C(F)(F)F)CNC2=O (stereo not given) | -3.06% | – | 8.2 µM [falling, partial curve] |
| COc1ccc(OC)c(NC(=O)CCCNC(=O)c2ccc(Cl)cc2)c1 | 25.5% | – | 6.51 µM [falling, partial curve, poor fit] |
| COc1ccccc1C(=O)Oc1cc(N)n(S(=O)(=O)c2ccccc2)n1 | 20% | 4.11 µM [falling, partial curve] | 3.66 µM [falling, partial curve] |
| Cc1oc(-c2ccccc2)cc1C(=O)Nc1cccc(C(=O)O)c1 | – | 5.17 µM [falling, single point] | – |
| COc1ccc(/C=C/C(=O)OCC(=O)Nc2ccc(S(N)(=O)=O)cc2)cc1OC | 10.1% | – | – |
| Cc1cc2ccccc2n2c(SCC(=O)NCc3cccs3)nnc12 | 22.3% | 0.291 µM [rising, full curve, poor fit] | 9.2 µM [rising, partial curve] |
| Cc1ccc2nc3c(cc(C(N)=S)c(=N)n3CCCOC(C)C)c(=O)n2c1 | 52.6% | 0.13 µM [rising, full curve, poor fit] | – |
